In PubChem BioAssay (EPA / NIEHS):
Where “and” joins values, the source holds several entries; their conditions need not be identical. Equal entries are not always repeated. The shares of active, inactive and inconclusive entries below differ from those in the screen. Potencies of inconclusive entries are doubtful fits and often do not repeat. Calls of active or inactive are those of the source. The calls were made as follows: active = hit-call score of the fitted dose curve at least 0.9, where 1 is the maximum; inconclusive = response in the unintended direction; inactive = score below 0.9.

The chains behind the UniProt entries cited, without tags or fusion partners. Where a name states a change or a piece, a line headed by the entry shows the natural chain unless it says otherwise.
UniProt P13631, whole entry, looked up: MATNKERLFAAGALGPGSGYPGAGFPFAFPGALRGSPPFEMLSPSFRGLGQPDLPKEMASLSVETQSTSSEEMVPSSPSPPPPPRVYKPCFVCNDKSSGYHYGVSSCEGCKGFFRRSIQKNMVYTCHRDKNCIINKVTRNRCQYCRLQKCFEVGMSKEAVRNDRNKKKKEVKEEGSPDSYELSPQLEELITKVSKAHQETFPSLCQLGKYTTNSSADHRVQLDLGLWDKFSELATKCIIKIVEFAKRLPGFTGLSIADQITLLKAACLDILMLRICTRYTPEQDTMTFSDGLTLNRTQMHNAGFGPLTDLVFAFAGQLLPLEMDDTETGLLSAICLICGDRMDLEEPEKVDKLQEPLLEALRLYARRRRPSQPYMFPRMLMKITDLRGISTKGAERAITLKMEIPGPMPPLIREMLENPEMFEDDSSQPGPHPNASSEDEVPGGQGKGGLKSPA
UniProt Q92753: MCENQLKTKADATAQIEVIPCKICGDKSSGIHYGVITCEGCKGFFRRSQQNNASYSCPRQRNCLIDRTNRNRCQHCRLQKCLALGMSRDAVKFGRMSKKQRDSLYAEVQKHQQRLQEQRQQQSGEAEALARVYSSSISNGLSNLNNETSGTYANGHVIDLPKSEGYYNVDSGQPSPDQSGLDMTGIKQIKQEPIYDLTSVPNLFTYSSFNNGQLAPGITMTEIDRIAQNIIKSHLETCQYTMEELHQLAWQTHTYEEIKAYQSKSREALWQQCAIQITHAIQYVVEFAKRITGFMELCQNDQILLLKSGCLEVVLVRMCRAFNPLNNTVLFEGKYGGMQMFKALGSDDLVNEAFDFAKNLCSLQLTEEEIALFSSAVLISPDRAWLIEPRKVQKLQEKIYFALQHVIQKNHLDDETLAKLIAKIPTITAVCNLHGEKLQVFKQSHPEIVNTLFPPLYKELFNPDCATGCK
UniProt P51449: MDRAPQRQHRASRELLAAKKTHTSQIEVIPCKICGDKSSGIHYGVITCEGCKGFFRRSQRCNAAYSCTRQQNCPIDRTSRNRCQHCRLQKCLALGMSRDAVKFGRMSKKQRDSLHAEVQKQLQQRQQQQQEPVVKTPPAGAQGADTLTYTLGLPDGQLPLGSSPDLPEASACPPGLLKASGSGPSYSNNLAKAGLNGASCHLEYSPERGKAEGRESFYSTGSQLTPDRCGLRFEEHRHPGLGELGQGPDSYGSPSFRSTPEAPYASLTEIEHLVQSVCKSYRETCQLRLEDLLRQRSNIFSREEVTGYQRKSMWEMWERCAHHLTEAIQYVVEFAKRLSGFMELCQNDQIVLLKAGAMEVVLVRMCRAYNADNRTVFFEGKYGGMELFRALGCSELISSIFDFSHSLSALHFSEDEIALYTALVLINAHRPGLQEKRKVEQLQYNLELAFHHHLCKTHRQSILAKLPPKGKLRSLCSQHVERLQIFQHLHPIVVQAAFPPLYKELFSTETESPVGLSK
UniProt P28702: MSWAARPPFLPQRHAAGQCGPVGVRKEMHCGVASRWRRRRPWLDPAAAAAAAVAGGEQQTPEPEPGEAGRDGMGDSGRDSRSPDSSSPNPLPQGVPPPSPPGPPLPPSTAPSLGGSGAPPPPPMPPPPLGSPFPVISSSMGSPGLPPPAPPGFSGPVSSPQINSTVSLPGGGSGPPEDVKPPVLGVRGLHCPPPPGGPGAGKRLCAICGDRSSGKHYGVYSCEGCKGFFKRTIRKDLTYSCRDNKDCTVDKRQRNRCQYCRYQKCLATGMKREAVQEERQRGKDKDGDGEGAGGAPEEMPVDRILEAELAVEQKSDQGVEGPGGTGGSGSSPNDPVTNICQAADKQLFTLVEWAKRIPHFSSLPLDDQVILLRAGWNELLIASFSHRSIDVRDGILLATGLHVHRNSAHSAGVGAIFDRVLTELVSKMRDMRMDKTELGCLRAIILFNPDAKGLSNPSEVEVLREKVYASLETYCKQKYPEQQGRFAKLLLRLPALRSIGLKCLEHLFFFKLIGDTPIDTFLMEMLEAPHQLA
UniProt P10827: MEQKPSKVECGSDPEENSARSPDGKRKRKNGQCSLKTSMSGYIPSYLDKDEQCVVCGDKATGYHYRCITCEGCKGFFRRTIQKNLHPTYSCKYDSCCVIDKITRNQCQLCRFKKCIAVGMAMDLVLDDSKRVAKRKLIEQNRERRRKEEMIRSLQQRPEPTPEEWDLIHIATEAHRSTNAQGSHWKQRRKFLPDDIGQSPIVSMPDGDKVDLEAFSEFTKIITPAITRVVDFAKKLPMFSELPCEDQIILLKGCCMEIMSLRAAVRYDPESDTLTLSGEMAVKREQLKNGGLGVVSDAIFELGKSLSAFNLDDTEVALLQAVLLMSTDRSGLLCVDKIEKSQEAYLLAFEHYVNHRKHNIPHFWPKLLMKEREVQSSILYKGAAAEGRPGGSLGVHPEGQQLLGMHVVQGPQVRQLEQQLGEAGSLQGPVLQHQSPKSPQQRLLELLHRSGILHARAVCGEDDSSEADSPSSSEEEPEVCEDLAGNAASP
UniProt P11473: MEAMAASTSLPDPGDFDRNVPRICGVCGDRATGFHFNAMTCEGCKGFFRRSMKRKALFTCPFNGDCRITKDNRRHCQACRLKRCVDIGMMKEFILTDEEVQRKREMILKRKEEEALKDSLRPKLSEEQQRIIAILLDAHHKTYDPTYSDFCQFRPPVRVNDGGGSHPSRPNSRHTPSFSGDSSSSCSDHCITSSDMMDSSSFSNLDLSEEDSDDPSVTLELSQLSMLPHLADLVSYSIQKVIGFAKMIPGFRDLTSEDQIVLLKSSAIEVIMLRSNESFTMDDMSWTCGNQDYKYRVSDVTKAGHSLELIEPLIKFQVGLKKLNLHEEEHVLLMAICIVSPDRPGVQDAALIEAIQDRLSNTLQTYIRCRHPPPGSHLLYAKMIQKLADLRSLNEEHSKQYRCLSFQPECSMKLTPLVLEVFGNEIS

Tests used:
[1] = target: human Retinoic Acid Receptor gamma (RARg), RARG (gene 5916) (UniProt P13631); assay: ATG_RARg_TRANS: Attagene TRANS-FACTORIAL HepG2 Assay for human Retinoic Acid Receptor gamma (RARg) (AID 2283009);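 as to AC50: AC50 is for reporter induction above DMSO meaning RARg activation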
Method in brief: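 Transient transfection of HepG2 with multi-reporter constructs, then 24 h chemical treatment. Total RNA isolated, reverse-transcribed, PCR-amplified, fluorescently labelled and resolved by capillary electrophoresis; activity scored as mRNA induction versus DMSO.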

[2] = target: human RAR-related Orphan Receptor beta (RORb), RORB (gene 6096) (UniProt Q92753); assay: ATG_RORb_TRANS: Attagene TRANS-FACTORIAL HepG2 Assay for human RAR-related Orphan Receptor beta (RORb) (AID 2283010);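 as to AC50: potency for increased reporter mRNA meaning activation of RORb-Gal4 chimera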
Method in brief: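 Readout is reporter-gene mRNA induction, detected as fluorescence after RT-PCR and capillary electrophoresis, fitted for gain of signal against DMSO controls. Transiently transfected HepG2 liver cells carrying GAL4-UAS reporter constructs were treated for 24 hours.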

[3] = target: human RAR-related Orphan Receptor gamma (RORg), RORC (gene 6097) (UniProt P51449); assay: ATG_RORg_TRANS: Attagene TRANS-FACTORIAL HepG2 Assay for human RAR-related Orphan Receptor gamma (RORg) (AID 2283011);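 as to AC50: potency for induction of reporter transcripts above DMSO so activators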
Method in brief: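 First, HepG2 liver cells were transfected with GAL4-UAS-driven reporter constructs and the RORg-Gal4 fusion. Next, they were treated with chemical for 24 h. Finally, reporter mRNA was quantified by RT-PCR and capillary electrophoresis, with upward activity fitted against DMSO.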

[4] = target: human Retinoid X Receptor beta (RXRb), RXRB (gene 6257) (UniProt P28702); assay: ATG_RXRb_TRANS: Attagene TRANS-FACTORIAL HepG2 Assay for human Retinoid X Receptor beta (RXRb) (AID 2283013)
Method in brief: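 Transfect HepG2 with GAL4-UAS multi-reporter constructs (chimeric NR-Gal4, TRANS format); dose compound 24 h; isolate RNA, RT-PCR, FAM primer extension, HpaI digest; quantify by capillary electrophoresis; positive direction vs DMSO.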

[5] = target: human Thyroid Receptor alpha (THRa1), THRA (gene 7067) (UniProt P10827); assay: ATG_THRa1_TRANS: Attagene TRANS-FACTORIAL HepG2 Assay for human Thyroid Receptor alpha (THRa1) (AID 2283014)
Method in brief: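 Reporter transcript induction, read by capillary electrophoresis of 6-FAM-labelled RT-PCR products, reflects activity of a transfected THRa1-Gal4 fusion in HepG2 liver cells. Cells were dosed for 24 h; activity was fitted in the positive direction against DMSO.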

[6] = target: human Vitamin D Receptor (VDR), VDR (gene 7421) (UniProt P11473); assay: ATG_VDR_TRANS: Attagene TRANS-FACTORIAL HepG2 Assay for human Vitamin D Receptor (VDR) (AID 2283022)
Method in brief: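 Steps: transfect HepG2 with GAL4-UAS-driven reporter constructs; dose compounds 24 h; isolate RNA, reverse-transcribe, PCR-amplify with 6-FAM-labelled primer extension and HpaI digestion; quantify fragments by capillary electrophoresis relative to DMSO.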

CC(C)(C)C(=O)C=Cc1ccc(Cl)cc1
AC50 [1]: inconclusive: 26.2 µM
AC50 [2]: inconclusive: 100 µM
AC50 [3]: active: 24.4 µM
AC50 [4]: active: 24.4 µM
outcome [5]: inactive

O=C1c2cccc(O)c2C(=O)c2c(O)cc(CO)cc21
outcome [1]: inactive
AC50 [2]: inconclusive: 5.47 µM
AC50 [3]: inconclusive: 7.86 µM
outcome [5]: inactive

COS(=O)(=O)O
AC50 [1]: inconclusive: 100 µM
AC50 [2]: inconclusive: 174 µM
AC50 [3]: inconclusive: 100 µM
outcome [5]: inactive

CC1=C(Br)C(=O)C(Br)=C/C1=C(/c1ccccc1S(=O)(=O)O)c1cc(Br)c(O)c(Br)c1C
outcome [1]: inactive
outcome [2]: inactive
AC50 [3]: inconclusive: 0.0597 µM
AC50 [4]: inconclusive: 72.5 µM
AC50 [5]: inconclusive: 72.5 µM
AC50 [6]: inconclusive: 72.5 µM

COc1cc(CCC(C)=O)ccc1O
AC50 [1]: inconclusive: 100 µM
AC50 [2]: inconclusive: 100 µM
AC50 [3]: inconclusive: 3.62 µM
AC50 [4]: inconclusive: 100 µM
AC50 [5]: inconclusive: 100 µM
AC50 [6]: inconclusive: 100 µM

Cc1ccc(C=O)s1
AC50 [1]: inconclusive: 63.7 µM
outcome [2]: inactive
AC50 [3]: inconclusive: 100 µM
AC50 [4]: inconclusive: 100 µM
AC50 [6]: inconclusive: 100 µM

CN(C)CCCN(C)C
AC50 [1]: inconclusive: 9.74 µM
outcome [2]: inactive
AC50 [3]: inconclusive: 5.4 µM
AC50 [4]: inconclusive: 0.178 µM
outcome [5]: inactive

CC(C)(C)C(=O)CCc1ccc(Cl)cc1
outcome [1]: inactive
AC50 [2]: inconclusive: 100 µM
outcome [3]: inactive
outcome [5]: inactive

COCC(C)N (stereo unspecified)
AC50 [1]: inconclusive: 100 µM
AC50 [2]: inconclusive: 0.113 µM
outcome [3]: inactive
AC50 [4]: inconclusive: 100 µM
outcome [5]: inactive

CCN(CC)c1ccc(C=O)c(O)c1
AC50 [1]: inconclusive: 2.74 µM
AC50 [2]: inconclusive: 26.7 µM
outcome [3]: inactive
outcome [4]: inactive
AC50 [5]: inconclusive: 100 µM
outcome [6]: inactive

FC(F)=C(F)C(F)(F)C(F)(F)C(F)(F)C(F)F
AC50 [1]: inconclusive: 150 µM
outcome [2]: inactive
outcome [3]: inactive
AC50 [4]: inconclusive: 150 µM
AC50 [5]: inconclusive: 150 µM
AC50 [6]: inconclusive: 150 µM

CC(C=O)Cc1ccc(C(C)(C)C)cc1 (stereo unspecified)
AC50 [1]: inconclusive: 150 µM
AC50 [2]: inconclusive: 100 µM
AC50 [3]: inconclusive: 100 µM
AC50 [5]: inconclusive: 100 µM

CCCCCCCCCCCCN1CCCC1=O
AC50 [1]: inconclusive: 56.6 µM
AC50 [2]: inconclusive: 33.4 µM
AC50 [3]: inconclusive: 33.4 µM
outcome [5]: inactive
outcome [6]: inactive

SCCc1cnccn1
AC50 [1]: inconclusive: 27.7 µM
AC50 [2]: inconclusive: 100 µM
outcome [3]: inactive
AC50 [4]: inconclusive: 19.4 µM
AC50 [5]: inconclusive: 25.4 µM

c1ccc(CNc2ncnc3nc[nH]c23)cc1
outcome [1]: inactive
AC50 [2]: inconclusive: 26.9 µM
AC50 [3]: inconclusive: 100 µM
AC50 [4]: inconclusive: 100 µM
outcome [5]: inactive
AC50 [6]: inconclusive: 100 µM

Cc1[nH]nc2c1N=C(c1ccccc1Cl)c1cc([N+](=O)[O-])ccc1N2
AC50 [1]: inconclusive: 100 µM
outcome [2]: inactive
AC50 [3]: inconclusive: 1.77 µM
outcome [5]: inactive

O=C(C=Cc1ccccc1)OCCCc1ccccc1
outcome [1]: inactive
outcome [2]: inactive
AC50 [3]: inconclusive: 100 µM
AC50 [4]: active: 66.6 µM
AC50 [6]: inconclusive: 100 µM

CC(C)(Oc1ccc(C2CC2(Cl)Cl)cc1)C(=O)O (stereo unspecified)
outcome [1]: inactive
AC50 [2]: inconclusive: 27.6 µM
AC50 [3]: inconclusive: 100 µM
outcome [4]: inactive
outcome [5]: inactive
AC50 [6]: inconclusive: 100 µM

CCc1nn(C2CCCCC2)c2cc(C3(C#N)CCC(C(=O)O)CC3)ccc12 (stereo unspecified)
AC50 [1]: inconclusive: 100 µM
AC50 [2]: inconclusive: 49.3 µM
AC50 [3]: inconclusive: 100 µM
AC50 [5]: inconclusive: 13.7 µM
